The values that follow come from PMC11444248.

The chains behind the UniProt entries cited, without tags or fusion partners. Residues count along the entry.
UniProt P56726, residues 33-793: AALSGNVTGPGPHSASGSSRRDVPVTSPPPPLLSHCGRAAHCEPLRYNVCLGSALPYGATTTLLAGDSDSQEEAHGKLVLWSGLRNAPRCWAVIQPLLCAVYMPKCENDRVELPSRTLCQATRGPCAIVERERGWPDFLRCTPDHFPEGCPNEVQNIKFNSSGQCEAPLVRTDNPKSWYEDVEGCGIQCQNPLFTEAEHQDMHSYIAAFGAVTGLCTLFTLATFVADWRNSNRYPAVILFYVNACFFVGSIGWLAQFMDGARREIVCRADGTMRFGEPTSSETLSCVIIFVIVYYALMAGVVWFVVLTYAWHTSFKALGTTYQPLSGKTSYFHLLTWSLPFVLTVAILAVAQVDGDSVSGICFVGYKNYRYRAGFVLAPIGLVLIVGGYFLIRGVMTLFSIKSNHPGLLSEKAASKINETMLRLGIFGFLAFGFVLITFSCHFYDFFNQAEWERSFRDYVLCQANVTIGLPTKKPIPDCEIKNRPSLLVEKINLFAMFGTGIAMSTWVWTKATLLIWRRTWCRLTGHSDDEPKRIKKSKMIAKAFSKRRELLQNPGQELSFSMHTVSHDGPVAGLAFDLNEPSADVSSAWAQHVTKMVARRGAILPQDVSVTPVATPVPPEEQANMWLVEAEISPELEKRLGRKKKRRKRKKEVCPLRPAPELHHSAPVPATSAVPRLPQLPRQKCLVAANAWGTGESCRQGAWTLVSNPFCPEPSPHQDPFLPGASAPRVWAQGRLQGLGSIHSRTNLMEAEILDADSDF

For test [1], the target named is Smoothened (Smo) (mouse (endogenous in primary hepatocytes)) (UniProt P56726). Put plainly: co-IP; immunoprecipitation in extracts from mouse primary hepatocytes, detection by Western blot; which protein was precipitated is not told in the text or legend. (In western blotting, separated proteins are transferred to a membrane and probed.)
The target of test [2] is T1, thymidine phosphorylase (TP) (mouse (endogenous in primary hepatocytes)) (UniProt Q99N42).
T1 sequence: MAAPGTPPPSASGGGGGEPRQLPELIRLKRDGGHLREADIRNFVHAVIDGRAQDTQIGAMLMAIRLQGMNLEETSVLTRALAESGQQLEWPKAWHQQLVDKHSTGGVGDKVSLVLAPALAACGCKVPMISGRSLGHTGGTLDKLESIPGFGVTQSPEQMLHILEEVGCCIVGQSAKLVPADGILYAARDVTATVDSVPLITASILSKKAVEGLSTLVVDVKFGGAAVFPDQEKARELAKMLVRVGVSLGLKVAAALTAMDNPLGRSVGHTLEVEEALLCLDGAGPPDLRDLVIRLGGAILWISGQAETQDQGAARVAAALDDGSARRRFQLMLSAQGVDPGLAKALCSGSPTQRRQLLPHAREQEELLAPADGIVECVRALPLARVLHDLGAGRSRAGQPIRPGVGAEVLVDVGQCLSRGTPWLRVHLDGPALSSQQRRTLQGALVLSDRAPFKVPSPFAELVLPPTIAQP
The test is described as above.

No constants are given. Whether binding was seen depends on the method and setting. In cells and extracts the contact can be indirect. Some binding calls cover weakened binding; strength is not graded here.

B1: thymidine phosphorylase (TP) (enzyme, UniProt Q99N42 1-471)
chain: T1 sequence
With B1, in test [1], the binding result was “binds”.

B2: HO1 (enzyme, UniProt P14901 1-289)
chain: MERPQPDSMPQDLSEALKEATKEVHIQAENAEFMKNFQKGQVSREGFKLVMASLYHIYTALEEEIERNKQNPVYAPLYFPEELHRRAALEQDMAFWYGPHWQEIIPCTPATQHYVKRLHEVGRTHPELLVAHAYTRYLGDLSGGQVLKKIAQKAMALPSSGEGLAFFTFPNIDSPTKFKQLYRARMNTLEMTPEVKHRVTEEAKTAFLLNIELFEELQVMLTEEHKDQSPSQMASLRQRPASLVQDTAPAETPRGKPQISTSSSQTPLLQWVLTLSFLLATVAVGIYAM
On to B2, for which the binding result in test [1] and in test [2] was “binds” in each case.

B3: nuclear factor erythroid 2-related factor 2 (Nrf2) (protein, UniProt Q60795 1-597)
chain: MMDLELPPPGLQSQQDMDLIDILWRQDIDLGVSREVFDFSQRQKDYELEKQKKLEKERQEQLQKEQEKAFFAQFQLDEETGEFLPIQPAQHIQTDTSGSASYSQVAHIPKQDALYFEDCMQLLAETFPFVDDHESLALDIPSHAESSVFTAPHQAQSLNSSLEAAMTDLSSIEQDMEQVWQELFSIPELQCLNTENKQLADTTAVPSPEATLTEMDSNYHFYSSISSLEKEVGNCGPHFLHGFEDSFSSILSTDDASQLTSLDSNPTLNTDFGDEFYSAFIAEPSDGGSMPSSAAISQSLSELLDGTIEGCDLSLCKAFNPKHAEGTMEFNDSDSGISLNTSPSRASPEHSVESSIYGDPPPGFSDSEMEELDSAPGSVKQNGPKAQPAHSPGDTVQPLSPAQGHSAPMRESQCENTTKKEVPVSPGHQKAPFTKDKHSSRLEAHLTRDELRAKALHIPFPVEKIINLPVDDFNEMMSKEQFNEAQLALIRDIRRRGKNKVAAQNCRKRKLENIVELEQDLGHLKDEREKLLREKGENDRNLHLLKRRLSTLYLEVFSMLRDEDGKPYSPSEYSLQQTRDGNVFLVPKSKKPDTKKN
Consider B3, for which the binding result in test [1] and in test [2] was “binds” in each case.
